Laboratory results: the supplement of paper PMC10849652
The list shows a part of the results. Residues, ends and D or L forms follow the SMILES beside them. *: point of attachment. Cbz = O=C(OCc1ccccc1)*

Chains of the proteins cited; added tags and fusions are not shown. Lines headed by an entry give the natural chain unless they say otherwise; changes in a name come on top.
UniProt Q96CN7: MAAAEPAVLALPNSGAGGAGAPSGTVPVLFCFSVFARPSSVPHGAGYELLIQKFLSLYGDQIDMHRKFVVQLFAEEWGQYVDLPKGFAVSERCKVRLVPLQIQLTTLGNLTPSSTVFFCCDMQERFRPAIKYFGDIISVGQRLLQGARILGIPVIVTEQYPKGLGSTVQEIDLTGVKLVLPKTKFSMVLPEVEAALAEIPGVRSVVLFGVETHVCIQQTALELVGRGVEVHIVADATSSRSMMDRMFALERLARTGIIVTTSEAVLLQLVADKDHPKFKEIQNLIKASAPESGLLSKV
UniProt Q9ULR0: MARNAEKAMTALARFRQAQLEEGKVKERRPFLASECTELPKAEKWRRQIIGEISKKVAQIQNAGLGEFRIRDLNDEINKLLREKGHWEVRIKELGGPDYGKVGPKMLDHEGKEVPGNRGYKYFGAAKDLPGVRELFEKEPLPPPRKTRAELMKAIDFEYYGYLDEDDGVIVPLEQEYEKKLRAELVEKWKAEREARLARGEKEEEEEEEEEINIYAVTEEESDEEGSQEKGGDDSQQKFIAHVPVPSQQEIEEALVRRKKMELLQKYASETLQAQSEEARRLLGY
UniProt Q13422: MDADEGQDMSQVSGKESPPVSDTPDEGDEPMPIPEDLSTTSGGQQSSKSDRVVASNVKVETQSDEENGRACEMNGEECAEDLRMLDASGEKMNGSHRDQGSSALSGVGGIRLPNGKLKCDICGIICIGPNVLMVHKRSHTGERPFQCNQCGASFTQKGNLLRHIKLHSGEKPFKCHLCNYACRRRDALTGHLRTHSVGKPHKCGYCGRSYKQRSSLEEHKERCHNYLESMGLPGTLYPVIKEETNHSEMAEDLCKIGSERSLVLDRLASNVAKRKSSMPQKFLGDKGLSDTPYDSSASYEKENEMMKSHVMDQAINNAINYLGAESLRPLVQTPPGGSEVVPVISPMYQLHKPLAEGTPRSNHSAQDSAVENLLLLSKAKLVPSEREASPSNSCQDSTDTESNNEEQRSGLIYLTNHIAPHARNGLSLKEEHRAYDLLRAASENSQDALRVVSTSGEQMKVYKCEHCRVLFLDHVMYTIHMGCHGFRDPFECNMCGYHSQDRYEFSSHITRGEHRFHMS
UniProt Q01628, whole entry, looked up: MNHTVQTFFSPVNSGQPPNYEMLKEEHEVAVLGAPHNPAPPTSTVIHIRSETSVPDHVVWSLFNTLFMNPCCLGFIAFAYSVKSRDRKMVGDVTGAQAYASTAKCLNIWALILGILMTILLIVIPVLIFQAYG
UniProt Q96J02: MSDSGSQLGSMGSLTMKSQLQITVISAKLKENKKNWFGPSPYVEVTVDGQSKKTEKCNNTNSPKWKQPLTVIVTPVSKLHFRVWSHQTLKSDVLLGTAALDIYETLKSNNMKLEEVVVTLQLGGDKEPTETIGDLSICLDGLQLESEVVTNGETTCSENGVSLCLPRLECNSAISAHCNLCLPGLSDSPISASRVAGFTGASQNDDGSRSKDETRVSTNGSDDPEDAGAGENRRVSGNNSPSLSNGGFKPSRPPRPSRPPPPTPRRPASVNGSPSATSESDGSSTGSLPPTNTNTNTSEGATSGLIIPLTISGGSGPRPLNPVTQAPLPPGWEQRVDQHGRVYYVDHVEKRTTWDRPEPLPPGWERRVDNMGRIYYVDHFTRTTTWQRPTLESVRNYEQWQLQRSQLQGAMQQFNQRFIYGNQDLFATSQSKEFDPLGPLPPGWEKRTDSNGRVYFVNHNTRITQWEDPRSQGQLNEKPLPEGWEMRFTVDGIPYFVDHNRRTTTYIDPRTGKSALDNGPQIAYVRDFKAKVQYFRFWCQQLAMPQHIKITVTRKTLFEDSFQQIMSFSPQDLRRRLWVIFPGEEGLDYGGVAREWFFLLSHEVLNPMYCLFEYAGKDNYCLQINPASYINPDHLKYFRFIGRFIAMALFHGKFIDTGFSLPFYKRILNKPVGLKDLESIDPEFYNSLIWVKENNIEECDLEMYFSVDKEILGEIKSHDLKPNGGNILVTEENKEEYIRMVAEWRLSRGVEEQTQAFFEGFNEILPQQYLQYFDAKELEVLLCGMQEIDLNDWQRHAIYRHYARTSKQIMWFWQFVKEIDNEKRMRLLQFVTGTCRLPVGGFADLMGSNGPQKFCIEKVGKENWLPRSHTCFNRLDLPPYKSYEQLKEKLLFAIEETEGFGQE
UniProt Q13572: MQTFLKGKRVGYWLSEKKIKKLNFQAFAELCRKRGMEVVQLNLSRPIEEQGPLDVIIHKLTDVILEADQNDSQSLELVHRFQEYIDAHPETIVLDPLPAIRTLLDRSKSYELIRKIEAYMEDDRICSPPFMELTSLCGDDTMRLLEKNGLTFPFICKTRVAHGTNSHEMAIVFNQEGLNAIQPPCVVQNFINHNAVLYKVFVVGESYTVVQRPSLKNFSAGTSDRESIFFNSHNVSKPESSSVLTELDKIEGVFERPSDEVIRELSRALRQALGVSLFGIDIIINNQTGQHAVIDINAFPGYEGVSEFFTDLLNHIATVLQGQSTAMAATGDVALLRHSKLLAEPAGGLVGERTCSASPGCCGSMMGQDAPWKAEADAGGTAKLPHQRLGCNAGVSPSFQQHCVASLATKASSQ
UniProt P46940, whole entry, looked up: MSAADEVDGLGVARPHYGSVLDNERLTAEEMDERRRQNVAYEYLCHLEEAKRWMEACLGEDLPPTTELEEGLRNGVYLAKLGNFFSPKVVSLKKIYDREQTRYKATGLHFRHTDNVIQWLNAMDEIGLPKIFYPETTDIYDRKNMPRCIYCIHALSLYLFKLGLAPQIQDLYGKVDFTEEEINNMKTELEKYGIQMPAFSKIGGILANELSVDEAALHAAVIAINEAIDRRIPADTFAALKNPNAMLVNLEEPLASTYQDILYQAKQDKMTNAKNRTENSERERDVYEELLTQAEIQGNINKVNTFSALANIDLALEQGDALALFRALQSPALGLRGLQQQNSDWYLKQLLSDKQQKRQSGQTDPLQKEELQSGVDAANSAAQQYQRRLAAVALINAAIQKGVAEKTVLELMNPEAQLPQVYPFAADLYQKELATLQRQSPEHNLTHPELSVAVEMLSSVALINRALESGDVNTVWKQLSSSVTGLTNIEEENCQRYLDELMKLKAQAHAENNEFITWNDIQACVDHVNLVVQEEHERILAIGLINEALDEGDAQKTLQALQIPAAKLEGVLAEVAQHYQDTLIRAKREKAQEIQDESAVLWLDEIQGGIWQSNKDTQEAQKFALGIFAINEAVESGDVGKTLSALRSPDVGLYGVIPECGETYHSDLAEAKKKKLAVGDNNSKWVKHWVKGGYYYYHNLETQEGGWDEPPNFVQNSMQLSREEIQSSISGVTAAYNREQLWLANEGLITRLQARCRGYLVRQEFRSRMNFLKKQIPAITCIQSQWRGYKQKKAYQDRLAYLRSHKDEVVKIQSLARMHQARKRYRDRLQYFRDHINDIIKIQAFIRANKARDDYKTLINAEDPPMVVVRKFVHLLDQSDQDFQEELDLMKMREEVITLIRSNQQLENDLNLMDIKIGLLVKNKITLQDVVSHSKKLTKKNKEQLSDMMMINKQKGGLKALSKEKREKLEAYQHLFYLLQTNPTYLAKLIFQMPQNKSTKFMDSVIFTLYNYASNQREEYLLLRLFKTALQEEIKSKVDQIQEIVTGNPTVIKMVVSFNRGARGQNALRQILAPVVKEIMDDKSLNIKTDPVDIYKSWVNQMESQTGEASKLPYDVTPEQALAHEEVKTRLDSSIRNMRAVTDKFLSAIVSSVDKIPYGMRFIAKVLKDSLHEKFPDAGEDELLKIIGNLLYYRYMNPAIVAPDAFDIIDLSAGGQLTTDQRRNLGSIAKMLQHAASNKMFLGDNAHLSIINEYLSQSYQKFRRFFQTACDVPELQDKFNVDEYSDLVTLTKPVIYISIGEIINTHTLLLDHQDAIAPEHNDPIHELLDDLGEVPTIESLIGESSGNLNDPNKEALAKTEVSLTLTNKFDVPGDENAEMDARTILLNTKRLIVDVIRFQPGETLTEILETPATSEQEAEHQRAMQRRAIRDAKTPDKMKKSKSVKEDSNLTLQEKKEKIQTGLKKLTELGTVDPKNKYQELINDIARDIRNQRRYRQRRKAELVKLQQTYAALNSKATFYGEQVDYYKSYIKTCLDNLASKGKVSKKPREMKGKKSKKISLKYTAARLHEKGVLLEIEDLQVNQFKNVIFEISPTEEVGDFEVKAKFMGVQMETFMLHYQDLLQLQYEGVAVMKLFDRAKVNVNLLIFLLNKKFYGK
UniProt Q86U28: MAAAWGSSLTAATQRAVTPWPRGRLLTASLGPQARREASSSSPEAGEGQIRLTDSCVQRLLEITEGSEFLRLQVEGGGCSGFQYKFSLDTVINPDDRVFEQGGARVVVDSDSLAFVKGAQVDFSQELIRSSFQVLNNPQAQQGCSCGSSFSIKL
UniProt Q5TA45, whole entry, looked up: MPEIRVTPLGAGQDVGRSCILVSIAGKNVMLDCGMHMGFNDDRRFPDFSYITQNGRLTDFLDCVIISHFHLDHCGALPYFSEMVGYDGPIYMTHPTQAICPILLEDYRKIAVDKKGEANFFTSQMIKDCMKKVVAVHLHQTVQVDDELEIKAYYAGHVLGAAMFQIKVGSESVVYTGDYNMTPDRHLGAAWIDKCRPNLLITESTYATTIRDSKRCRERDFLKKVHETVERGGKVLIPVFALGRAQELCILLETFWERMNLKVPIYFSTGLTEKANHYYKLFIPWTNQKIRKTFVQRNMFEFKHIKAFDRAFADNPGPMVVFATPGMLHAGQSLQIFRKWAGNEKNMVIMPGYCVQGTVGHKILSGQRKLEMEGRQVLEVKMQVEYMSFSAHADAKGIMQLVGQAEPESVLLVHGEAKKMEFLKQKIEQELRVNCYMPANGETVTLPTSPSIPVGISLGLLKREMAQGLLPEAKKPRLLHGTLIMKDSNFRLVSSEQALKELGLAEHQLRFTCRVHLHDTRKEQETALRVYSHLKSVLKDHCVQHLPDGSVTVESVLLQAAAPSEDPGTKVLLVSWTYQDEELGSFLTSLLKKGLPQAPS
UniProt P51553: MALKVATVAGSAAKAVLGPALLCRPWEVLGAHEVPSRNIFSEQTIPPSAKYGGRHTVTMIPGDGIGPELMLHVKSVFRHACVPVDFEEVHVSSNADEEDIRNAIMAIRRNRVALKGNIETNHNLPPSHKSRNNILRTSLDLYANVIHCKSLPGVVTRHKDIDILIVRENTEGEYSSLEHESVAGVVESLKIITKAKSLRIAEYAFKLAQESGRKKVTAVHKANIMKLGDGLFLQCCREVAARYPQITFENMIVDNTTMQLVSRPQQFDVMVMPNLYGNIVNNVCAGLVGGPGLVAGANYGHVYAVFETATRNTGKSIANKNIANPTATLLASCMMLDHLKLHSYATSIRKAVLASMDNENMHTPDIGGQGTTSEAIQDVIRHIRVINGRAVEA
UniProt Q7Z5L9: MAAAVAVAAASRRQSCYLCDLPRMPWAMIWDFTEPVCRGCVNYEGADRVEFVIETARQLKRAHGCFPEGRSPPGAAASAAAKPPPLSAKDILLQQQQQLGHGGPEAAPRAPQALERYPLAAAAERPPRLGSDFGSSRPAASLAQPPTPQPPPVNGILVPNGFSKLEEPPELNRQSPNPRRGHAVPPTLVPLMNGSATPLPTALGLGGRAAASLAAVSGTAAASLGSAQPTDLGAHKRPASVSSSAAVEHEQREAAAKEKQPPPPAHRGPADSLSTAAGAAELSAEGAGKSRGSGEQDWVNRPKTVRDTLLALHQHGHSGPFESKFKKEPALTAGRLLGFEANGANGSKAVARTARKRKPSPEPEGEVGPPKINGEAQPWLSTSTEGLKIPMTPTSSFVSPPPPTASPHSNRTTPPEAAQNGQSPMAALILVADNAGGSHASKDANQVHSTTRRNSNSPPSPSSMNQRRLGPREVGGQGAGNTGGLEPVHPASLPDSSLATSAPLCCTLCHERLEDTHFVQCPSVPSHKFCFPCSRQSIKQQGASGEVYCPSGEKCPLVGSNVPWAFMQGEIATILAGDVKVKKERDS
UniProt Q9NPH2: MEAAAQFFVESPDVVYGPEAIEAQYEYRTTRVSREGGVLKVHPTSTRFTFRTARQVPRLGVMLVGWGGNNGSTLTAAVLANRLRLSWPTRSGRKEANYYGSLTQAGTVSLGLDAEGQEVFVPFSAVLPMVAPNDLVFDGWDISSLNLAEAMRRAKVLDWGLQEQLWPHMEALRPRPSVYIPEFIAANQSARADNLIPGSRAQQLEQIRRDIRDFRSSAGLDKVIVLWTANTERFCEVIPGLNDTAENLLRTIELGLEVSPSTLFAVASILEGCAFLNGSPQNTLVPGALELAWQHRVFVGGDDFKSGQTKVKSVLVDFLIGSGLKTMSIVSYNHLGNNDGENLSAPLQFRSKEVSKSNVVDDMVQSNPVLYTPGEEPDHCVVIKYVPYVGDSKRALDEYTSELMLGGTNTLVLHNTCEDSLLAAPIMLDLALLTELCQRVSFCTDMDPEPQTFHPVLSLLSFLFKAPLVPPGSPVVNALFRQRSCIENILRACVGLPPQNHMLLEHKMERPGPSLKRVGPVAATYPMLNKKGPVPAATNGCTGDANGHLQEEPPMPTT

Columns and labels:
Experiment in all cases: log2 fold change, soluble protein after heating vs DMSO (PISA); higher = thermal stabilisation; K562 cells, 10 uM, 30 min; active = over 0.2 and 3.5 SD of the protein, either way, in both replicates (recomputed)
[1] = compound: C#Cc1cccc(Nc2ncnc3cc(OCCOC)c(OCCOC)cc23)c1 [erlotinib]
In short: (§1)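 For each measurement, 10 μM compound was applied for 30 min to K562 cells at 2×10^6 cells/mL. Aliquots were heated for 3 min across 48°C-58°C, pooled, and extracted in PBS with 0.5% NP-40 at 4°C; the supernatant after 21,000xg for 90 min was soluble protein. This was quantified by TMTpro 16plex LC-MS/MS with channel sums equalised, and thermal stability was reported relative to control samples from duplicates, on a log2 fold-change scale.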

[2] = compound: C/C(=N\NC(=O)C1=CC(=CC=C1)S(=O)(=O)N2CCOCC2)/C3=C(C=CC(=C3)Cl)O
In short: as §1

[3] = compound: C1=CC(=C(C=C1Cl)C2=NC3=NC=CN=C3C(=N2)NC4=CC=NC=C4)F
In short: as §1

[4] = compound: C1=CC(=CC=C1C2=NC3=C(N2)C=C(C=C3)C(=O)N)OC4=CC=C(C=C4)Cl
In short: as §1

[5] = compound: C1=CC2=C(C=CC(=C2)/C=C\3/C(=O)NC(=NCC4=CC=CS4)S3)N=C1
In short: as §1

[6] = compound: C1=CC2=NC=CN=C2C=C1/C=C/3\C(=O)NC(=O)S3
In short: as §1

[7] = compound: C1=CC=C(C=C1)C2=NC(=C(N2)C3=CC=NC=C3)C4=CC(=C(C=C4)Cl)O
In short: as §1

[8] = compound: C1=CC=C2C(=C1)C3=NNC4=CC=CC(=C43)C2=O
In short: as §1

[9] = compound: C1CCN(C1)C(=O)NC2=CC=CC(=C2)NC3=NC=C(C(=N3)NCCC4=CN=CN4)Br
In short: as §1

[10] = compound: C1CN(CCC1(CC2=CC=C(C=C2)Cl)N)C3=NC=NC4=C3C=CN4
In short: as §1

[11] = compound: C1COCCN1CCN2C3=CC=CC=C3N=C2NC(=O)C4=CC(=CC=C4)[N+](=O)[O-] [IRAK-1-4 Inhibitor I]
In short: as §1

[12] = compound: C=CC(=O)N1CCC[C@@H](n2nc(-c3ccc(Oc4ccccc4)cc3)c3c(N)ncnc32)C1 [ibrutinib]
In short: as §1

[13] = compound: CC(=O)c1cnc2ccc(-c3cc(Cl)c(O)c(Cl)c3)nc2c1N[C@H]1CC[C@H](CN(C)C)CC1
In short: as §1

[14] = compound: CC(C)(C)Cn1c(N)nc2ccc(-c3[nH]c(C(C)(C)C)nc3-c3ccc(F)cc3)nc21 [ralimetinib]
In short: as §1

[15] = compound: CC(C)(O)CC(=O)NCCn1ccc2ncnc(Nc3ccc(Oc4cccc(C(F)(F)F)c4)c(Cl)c3)c21
In short: as §1

[16] = compound: CC(C)C1=C2N=C(C=C(N2N=C1)NCC3=CC=CC=C3)NCCCCCCN
In short: as §1

[17] = compound: CC(C)C[C@@H](C=O)NC(=O)[C@H](CC(C)C)NC(=O)[C@H](CC(C)C)NC(=O)OCc1ccccc1
In short: as §1

[18] = compound: CC(C)N(C[C@H]1O[C@@H](n2cnc3c(N)ncnc32)[C@H](O)[C@@H]1O)[C@H]1C[C@@H](CCc2nc3cc(C(C)(C)C)ccc3[nH]2)C1 [pinometostat]
In short: as §1

[19] = compound: CC1=C(C(CC(=O)N1)C2=CC=C(C=C2)C(F)(F)F)C(=O)NC3=C(C=C4C(=C3)C=NN4)F
In short: as §1

[20] = compound: CC1=C(C2=C(C=C1)C(=O)C3=CC=CC=C3N2CCCN)C
In short: as §1

Measured: log2 fold change

ISOC1 (UniProt Q96CN7)
inactive: [1] -0.005 | [2] 0.017 | [3] 0.014 | [4] -0.026 | [5] 0.053 | [6] 0.006 | [7] -0.017 | [8] -0.011 | [9] 0 | [10] 0.046 | [11] 0.014 | [12] 0.024 | [13] -0.025 | [14] -0.073 | [15] 0 | [16] 0.043 | [17] -0.016 | [18] -0.05 | [19] -0.012 | [20] 0.027

ISY1 isoform 1 (UniProt Q9ULR0)
inactive: [1] 0.007 | [2] -0.048 | [3] -0.049 | [4] 0.023 | [5] -0.005 | [6] 0.093 | [7] -0.118 | [8] -0.121 | [9] -0.012 | [10] 0.033 | [11] 0.038 | [12] 0.061 | [13] 0.141 | [14] -0.05 | [15] 0.041 | [16] 0.168 | [17] 0.039 | [18] -0.019 | [19] 0.037 | [20] 0.08

IKZF1 (UniProt Q13422)
inactive: [1] -0.005 | [2] -0.018 | [3] -0.008 | [4] 0.002 | [5] -0.015 | [6] 0.019 | [7] -0.069 | [8] 0.144 | [9] 0.051 | [10] 0 | [11] -0.017 | [12] 0.041 | [13] -0.069 | [14] -0.036 | [15] -0.015 | [16] -0.016 | [17] 0.011 | [18] 0.01 | [20] 0.275

Pulled one by one from the entries so far (2):
ISOC1 (UniProt Q96CN7)
inactive: [1] -0.005 | [2] 0.017 | [3] 0.014 | [4] -0.026 | [5] 0.053 | [6] 0.006 | [7] -0.017 | [8] -0.011 | [9] 0 | [10] 0.046 | [11] 0.014 | [12] 0.024 | [13] -0.025 | [14] -0.073 | [15] 0 | [16] 0.043 | [17] -0.016 | [18] -0.05 | [19] -0.012 | [20] 0.027

IKZF1 (UniProt Q13422)
inactive: [1] -0.005 | [2] -0.018 | [3] -0.008 | [4] 0.002 | [5] -0.015 | [6] 0.019 | [7] -0.069 | [8] 0.144 | [9] 0.051 | [10] 0 | [11] -0.017 | [12] 0.041 | [13] -0.069 | [14] -0.036 | [15] -0.015 | [16] -0.016 | [17] 0.011 | [18] 0.01 | [20] 0.275

Further results follow:

IFITM3 (UniProt Q01628)
inactive: [1] -0.093 | [2] -0.031 | [4] 0.042 | [5] -0.041 | [6] 0.058 | [7] 0.118 | [8] -0.01 | [9] -0.016 | [10] -0.03 | [11] -0.067 | [12] -0.02 | [13] -0.241 | [14] 0.031 | [15] 0.108 | [16] -0.082 | [17] 0.008 | [18] -0.181 | [20] 0.163
active: [3] -0.471

ITCH (UniProt Q96J02)
inactive: [1] 0.022 | [2] 0.097 | [3] -0.147 | [4] 0.044 | [5] 0.047 | [6] -0.023 | [7] 0.003 | [8] -0.043 | [9] -0.015 | [10] 0.012 | [11] -0.066 | [12] 0.056 | [13] -0.068 | [14] 0.061 | [15] 0.054 | [16] -0.072 | [17] 0.019 | [18] 0.002 | [19] -0.015 | [20] 0.103

ITPK1 (UniProt Q13572)
inactive: [1] -0.001 | [2] 0.07 | [3] -0.012 | [4] 0.036 | [5] -0.019 | [6] 0.038 | [7] 0.058 | [8] 0.098 | [9] 0.027 | [10] -0.014 | [11] -0.046 | [12] -0.014 | [13] 0.03 | [14] 0.021 | [15] 0.042 | [16] 0.13 | [17] -0.066 | [18] 0.02 | [19] -0.098 | [20] 0.016

IQGAP1 (UniProt P46940)
inactive: [1] 0.024 | [2] 0.099 | [3] 0.052 | [4] -0.009 | [5] 0.009 | [6] 0.007 | [7] 0.014 | [8] 0.01 | [9] 0.001 | [10] -0.027 | [11] -0.01 | [12] -0.039 | [13] -0.131 | [14] -0.025 | [15] -0.116 | [16] -0.074 | [17] -0.004 | [18] -0.012 | [19] 0.001 | [20] -0.01

ITGA5 (UniProt P08648)
inactive: [1] 0.014 | [2] -0.022 | [3] 0.048 | [4] 0.003 | [5] 0.041 | [6] 0.017 | [7] -0.038 | [8] -0.056 | [9] -0.051 | [10] 0.06 | [11] 0.06 | [12] 0.027 | [13] -0.045 | [14] -0.033 | [15] -0.02 | [16] 0.173 | [17] 0.02 | [18] -0.025 | [19] -0.037 | [20] 0.068

ISCA2 (UniProt Q86U28)
inactive: [1] -0.01 | [2] -0.103 | [3] 0.059 | [4] 0.048 | [5] 0.045 | [6] 0.017 | [7] 0.005 | [8] 0.002 | [9] -0.024 | [10] 0.011 | [11] 0.025 | [12] -0.022 | [13] -0.016 | [14] -0.058 | [15] -0.035 | [16] 0.043 | [17] 0.019 | [18] -0.049 | [19] -0.043 | [20] 0.067

INTS11 (UniProt Q5TA45)
inactive: [1] -0.023 | [2] 0.03 | [3] 0.066 | [4] 0.035 | [5] 0.015 | [6] -0.013 | [7] -0.045 | [8] -0.012 | [9] -0.075 | [10] 0.02 | [11] 0 | [12] -0.019 | [13] -0.039 | [14] -0.034 | [15] -0.073 | [16] -0.018 | [17] 0.02 | [18] -0.041 | [19] -0.002 | [20] 0.026

IDH3G (UniProt P51553)
inactive: [1] 0.014 | [2] 0 | [3] 0.088 | [4] -0.007 | [5] 0.028 | [6] 0.013 | [7] -0.022 | [8] 0.039 | [9] 0.031 | [10] 0.08 | [11] 0.037 | [12] -0.027 | [13] -0.006 | [14] -0.034 | [15] -0.011 | [16] 0.025 | [17] -0.033 | [18] -0.042 | [19] -0.035 | [20] 0

IRF2BP2 (UniProt Q7Z5L9)
inactive: [1] 0.006 | [2] -0.003 | [3] 0.059 | [4] -0.025 | [5] 0.003 | [6] -0.017 | [7] -0.01 | [8] -0.029 | [9] -0.07 | [10] 0.029 | [11] -0.017 | [12] 0 | [13] -0.028 | [14] -0.012 | [15] -0.026 | [16] 0.06 | [17] 0.049 | [18] -0.062 | [19] 0.021 | [20] 0.019

IMPDH2 (UniProt H0Y4R1)
inactive: [1] -0.137 | [2] -0.082 | [3] -0.17 | [4] 0.185 | [5] 0.12 | [6] -0.004 | [7] -0.027 | [8] -0.049 | [9] 0.001 | [10] 0 | [11] -0.095 | [12] -0.037 | [13] 0.022 | [14] -0.032 | [15] -0.111 | [16] 0.06 | [17] -0.012 | [18] 0.052 | [19] -0.036 | [20] 0.023

ITFG2 (UniProt Q969R8)
inactive: [1] -0.089 | [2] 0.065 | [3] -0.187 | [4] 0.164 | [5] 0.077 | [6] -0.042 | [7] -0.025 | [8] 0.006 | [9] -0.025 | [10] -0.019 | [11] 0.015 | [12] 0.127 | [13] -0.033 | [14] -0.061 | [15] -0.062 | [16] -0.103 | [17] 0.011 | [18] 0.075 | [19] 0.013 | [20] 0.024

ISYNA1 (UniProt Q9NPH2)
inactive: [1] -0.012 | [2] 0.006 | [3] 0 | [4] 0.018 | [5] -0.003 | [6] -0.018 | [7] -0.02 | [8] 0.003 | [9] 0.047 | [10] 0.055 | [11] 0.015 | [12] -0.069 | [13] -0.026 | [14] -0.037 | [15] -0.007 | [16] 0.051 | [17] -0.012 | [18] -0.074 | [19] 0.074 | [20] 0.013

INTS4 (UniProt Q96HW7)
inactive: [1] 0.036 | [2] 0.052 | [3] 0.032 | [4] 0.039 | [5] 0.07 | [6] 0.018 | [7] 0.04 | [8] -0.002 | [9] -0.047 | [10] 0.028 | [11] 0.002 | [12] -0.007 | [13] -0.017 | [14] -0.014 | [15] -0.041 | [16] 0.04 | [17] -0.033 | [18] -0.011 | [19] 0.031 | [20] 0.099
